# Data reported in PMC5863699, “Sensing iron availability via the fragile [4Fe–4S] cluster of the bacterial transcriptional repressor RirA† †Electronic supplementary information (ESI) available. See DOI: 10.1039/c7sc02801f” (Chemical Science, 2017).
# For part of these data: Construct, isoform or probe ends are uncertain for at least one entry. For part of these data: Where a protein sequence is shown, tags need not be part of it.
# Experiments:
# Test in all cases: EMSA
# [1] = molecular target: T1, [2Fe-2S] RirA (Rhizobium leguminosarum strain 8401 (pRL1JI)) (UniProt Q9AE46); conditions: [2Fe-2S] cluster; EMSA: 10 mM Tris, 60 mM KCl, pH 7.52, on ice; 7.5% polyacrylamide gel in 1x TBE; recombinant protein; residues 1-160; label: 5'-FAM (FAM-modified primers)
# T1 sequence (looked up): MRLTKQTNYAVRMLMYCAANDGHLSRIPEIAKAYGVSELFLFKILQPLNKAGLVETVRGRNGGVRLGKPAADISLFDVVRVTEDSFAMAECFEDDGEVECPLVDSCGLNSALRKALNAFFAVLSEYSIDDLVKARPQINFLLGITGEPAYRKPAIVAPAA
# [2] = molecular target: T2, [4Fe-4S] RirA (Rhizobium leguminosarum strain 8401 (pRL1JI)) (UniProt Q9AE46); conditions: [4Fe-4S] cluster; EMSA: 10 mM Tris, 60 mM KCl, pH 7.52, on ice; 7.5% polyacrylamide gel in 1x TBE; recombinant protein; residues 1-160; label: 5'-FAM (FAM-modified primers)
# T2 sequence (looked up): T1 sequence (looked up)
# [3] = molecular target: apo-RirA (Rhizobium leguminosarum strain 8401 (pRL1JI)) (UniProt Q9AE46); conditions: no cluster (apo); EMSA: 10 mM Tris, 60 mM KCl, pH 7.52, on ice; 7.5% polyacrylamide gel in 1x TBE; recombinant protein; residues 1-160; label: 5'-FAM (FAM-modified primers)
sequence,measurement,setting,value
CGCAGCCATCGAGGGGGCCCCAGCTGGTCCCGCGGGCTGCCAGGACATCGGCATCTATGACCGGACGATCCGGGCTTACCGAGCGACAGGTCTCTTCCCGTAATTGCCGGCGACTCTAATGGGAGTGGCAGTTGCTCAAGTGAGGGCGATGGTCTTTTGCGCAAGTCCGCCGGCCGACCTATCCGGCGAGCCACTTCAGCGGCATCTGCAGTCGAAATACCCCTCCTACTCAGTCAGGTGATACTCTGGCGCGGGCGTGGTTCAAAATCAGCAGCAAATACGGGATCGTCGGGTCCATCCCCGTCAAGACCGGCAGGTTGGCCATCGTCTCGGTGCGCGCTTGGTCTCGCGCGCGGCAGAACTGCCTCTGTTTGGCAGCCCCACAGAACGTTACGAGGCCTCGATTCTACGTGCAACCTGTTCGGGAGTGTTGAAGGCGTGGATTTATCGATTTAAAGGTGACTAAAATAATCATCTTATGTTGACAAGGCCAATTTCGCTCCATAGGTTCCGCCCGCATCCGTGGCGTAGGGACCAAACAATGGCACGTGTTTTTTTGAATGTTTCTAATAATGTATCGCG (double strand) [fhuA promoter fragment (IRO box operator)],Kd,[1],482 nM
same,Kd,[2],172 nM
same,Kd,[3],> 5500 nM
